Source: patent US20210388102A1
No constants are given. Whether binding was seen depends on the method and setting. Binding calls can cover weak binding; strength is not graded here.

Experiments:
[1] = molecular target: His peptide-tagged soluble cynoADAM9 (cynoADAM9-His) (cynomolgus monkey); experiment: ELISA, cynoADAM9-His (1 µg/mL) captured by anti-His antibody
[2] = molecular target: His peptide-tagged soluble cynoADAM9 (cynoADAM9-His) (cynomolgus monkey); experiment: ELISA: His-tagged soluble cynoADAM9 (1 µg/mL) captured by plate-coated anti-His antibody; serial dilutions of antibody 0.03-1 µg/ml; readout RLU

Row | binding [1] | binding [2] | Binder
1 | binds | binds | hMAB-A (2H.2) (antibody, V domains shown) VH: EVQLVESGGGLVKPGGSLRLSCAASGFTFSSYWMHWVRQAPGKGLEWVGEIIPIFGHTNYNEKFKSRFTISLDNSKNTLYLQMGSLRAEDTAVYYCARGGYYYYGGSGVLDYWGQGTTVTVSS VL: DIVMTQSPDSLAVSLGERATISCKASQSVDYSGDSYMNWYQQKPGQPPKLLIYAASDLESGIPARFSGSGSGTDFTLTISSLEPEDFATYYCQQSHEDPFTFGQGTKLEIK
2 | binds | binds | hMAB-A (2F.2) (antibody, V domains shown) VH: EVQLVESGGGLVKPGGSLRLSCAASGFTFSSYWMHWVRQAPGKGLEWVGEIIPIFGHTNYNEKFKSRFTISLDNSKNTLYLQMGSLRAEDTAVYYCARGGYYYYFHSGTLDYWGQGTTVTVSS VL: DIVMTQSPDSLAVSLGERATISCKASQSVDYSGDSYMNWYQQKPGQPPKLLIYAASDLESGIPARFSGSGSGTDFTLTISSLEPEDFATYYCQQSHEDPFTFGQGTKLEIK
3 | binds | binds | hMAB-A (2J.2) (antibody, V domains shown) VH: EVQLVESGGGLVKPGGSLRLSCAASGFTFSSYWMHWVRQAPGKGLEWVGEIIPIFGHTNYNEKFKSRFTISLDNSKNTLYLQMGSLRAEDTAVYYCARGGYYYYYNSGTLDYWGQGTTVTVSS VL: DIVMTQSPDSLAVSLGERATISCKASQSVDYSGDSYMNWYQQKPGQPPKLLIYAASDLESGIPARFSGSGSGTDFTLTISSLEPEDFATYYCQQSHEDPFTFGQGTKLEIK
4 | binds | binds | hMAB-A (2G.2) (antibody, V domains shown) VH: EVQLVESGGGLVKPGGSLRLSCAASGFTFSSYWMHWVRQAPGKGLEWVGEIIPIFGHTNYNEKFKSRFTISLDNSKNTLYLQMGSLRAEDTAVYYCARGGYYYYFNKAVLDYWGQGTTVTVSS VL: DIVMTQSPDSLAVSLGERATISCKASQSVDYSGDSYMNWYQQKPGQPPKLLIYAASDLESGIPARFSGSGSGTDFTLTISSLEPEDFATYYCQQSHEDPFTFGQGTKLEIK

Further lines, the binder ahead of its results:

Row | Binder | binding [1] | binding [2]
5 | hMAB-A (2B.2) (antibody, V domains shown) VH: EVQLVESGGGLVKPGGSLRLSCAASGFTFSSYWMHWVRQAPGKGLEWVGEIIPIFGHTNYNEKFKSRFTISLDNSKNTLYLQMGSLRAEDTAVYYCARGGYYYYIGKGVLDYWGQGTTVTVSS VL: DIVMTQSPDSLAVSLGERATISCKASQSVDYSGDSYMNWYQQKPGQPPKLLIYAASDLESGIPARFSGSGSGTDFTLTISSLEPEDFATYYCQQSHEDPFTFGQGTKLEIK | binds | binds
6 | hMAB-A (2E.2) (antibody, V domains shown) VH: EVQLVESGGGLVKPGGSLRLSCAASGFTFSSYWMHWVRQAPGKGLEWVGEIIPIFGHTNYNEKFKSRFTISLDNSKNTLYLQMGSLRAEDTAVYYCARGGYYYYDSNAVLDYWGQGTTVTVSS VL: DIVMTQSPDSLAVSLGERATISCKASQSVDYSGDSYMNWYQQKPGQPPKLLIYAASDLESGIPARFSGSGSGTDFTLTISSLEPEDFATYYCQQSHEDPFTFGQGTKLEIK | binds | binds
7 | hMAB-A (2D.2) (antibody, V domains shown) VH: EVQLVESGGGLVKPGGSLRLSCAASGFTFSSYWMHWVRQAPGKGLEWVGEIIPIFGHTNYNEKFKSRFTISLDNSKNTLYLQMGSLRAEDTAVYYCARGGYYYYTGKGVLDYWGQGTTVTVSS VL: DIVMTQSPDSLAVSLGERATISCKASQSVDYSGDSYMNWYQQKPGQPPKLLIYAASDLESGIPARFSGSGSGTDFTLTISSLEPEDFATYYCQQSHEDPFTFGQGTKLEIK | binds | binds
8 | hMAB-A (2A.2) (antibody, V domains shown) VH: EVQLVESGGGLVKPGGSLRLSCAASGFTFSSYWMHWVRQAPGKGLEWVGEIIPIFGHTNYNEKFKSRFTISLDNSKNTLYLQMGSLRAEDTAVYYCARGGYYYYFNSGTLDYWGQGTTVTVSS VL: DIVMTQSPDSLAVSLGERATISCKASQSVDYSGDSYMNWYQQKPGQPPKLLIYAASDLESGIPARFSGSGSGTDFTLTISSLEPEDFATYYCQQSHEDPFTFGQGTKLEIK | binds | binds
